Assay results: patent publication US20100316991A1, “HUMAN PARAINFLUENZA VIRUS TYPE 3 EXPRESSING THE ENHANCED GREEN FLUORESCENT PROTEIN FOR USE IN HIGH-THROUGHPUT ANTIVIRAL ASSAYS” (priority 2009, published 2010)
Some results were stated once for a whole list of compounds, not compound by compound.

System: rHPIV3-EGFP
Assay: 7-Day colorimetric neutral red uptake antiviral assay
Assay type: cell-based, human parainfluenza type 3 virus
Conditions: 7-day NR assay
Experimental: Ninety-six-well plates were seeded with MA-104 cells and infected with 3.9×10^3 PFU of either the HPIV-3 WT or rHPIV3-EGFP virus in duplicate at an MOI=0.1 in quadruplicate wells. The plates were incubated at 37° C. and on each day, including the day of infection, the cells were stained with 0.034% neutral red for 2 hours at 37° C., washed once with PBS, and the NR extracted with ethanol:Sörenson's citrate buffer for 30 min while rocking at room temperature. Absorbance, at 540 and 405 nm wavelengths, was read with an Opsys MR™ spectrophotometer and Revelation Quicklink software, version 4.24 (both from Dynex Technologies, Chantilly, Va.). The two curves was compared and statistically analyzed by ANOVA.
Six 96-well plates were seeded with MA-104 cells to evaluate the NR and EGFP assays in parallel. […] NR fluorescence was measured with the FMax® fluorometer, using the 544 nm excitation and 612 nm emission filters. The untreated virus control and treated, infected cells were washed with PBS, fresh PBS was added, and the fluorescence was measured with the FMax® fluorometer, using the 485 nm excitation and 538 nm emission filters. […] For the EGFP assay, EC50 values were calculated by linear regression using percents of untreated, infected virus controls and IC50 values were also calculated by linear regression using percents of untreated, uninfected cell control. […]

Question: How did the “activity category by SI in the NR assay” value turn out when N=C(N)c1ncn([C@@H]2O[C@H](CO)[C@@H](O)[C@H]2O)n1 [Ribamidine, 1-[(2R,3R,4S,5R)-3,4-dihydroxy-5-(hydroxymethyl)oxolan-2-yl]-1,2,4-triazole-3-carboximidamide] was run?
Answer: The value was “slightly active (SI values between 4 and 9 slightly active)”.

Question: How did the “activity category by SI in the NR assay” value turn out when NC(=O)c1c[se]c([C@@H]2O[C@H](CO)[C@@H](O)[C@H]2O)n1 [Selenazofurin, 2-[(2R,3R,4S,5R)-3,4-dihydroxy-5-(hydroxymethyl)oxolan-2-yl]-1,3-selenazole-4-carboxamide] was run?
Answer: Its value is “slightly active (SI values between 4 and 9 slightly active)”.
